Data reported in publication PMC3248445.
No constants are given. Whether binding was seen depends on the method and setting. Binding calls can cover weak binding; strength is not graded here.

What was measured:
Assay in all cases: two-hybrid; Matchmaker GAL4 two-hybrid system 3, pGADT7- and pGBKT7-derived vectors in PJ69 4a and PJ69 4alpha yeast, mated; growth on medium lacking Leu, Trp, His (low stringency) and lacking Leu, Trp, His, Ade (high stringency); three independent experiments, each in duplicate
[1] = target: VPg from PVY-LYE84 (Potato virus Y, strain LYE84)
[2] = target: VPg from PVY-LYE90 (Potato virus Y, strain LYE90)
[3] = target: VPg from PepMoV (Pepper mottle virus)
[4] = target: VPg from TEV-HAT (Tobacco etch virus, strain HAT)

Measured: binding

B1: eIF4E1 from tomato (Solanum lycopersicum cv. M82) (protein, UniProt Q4VQY3 1-231)
chain: MAAAEMERTMSFDAAEKLKAADGGGGEVDDELEEGEIVEESNDTASYLGKEITVKHPLEHSWTFWFDNPTTKSRQTAWGSSLRNVYTFSTVEDFWGAYNNIHHPSKLIMGADFHCFKHKIEPKWEDPVCANGGTWKMSFSKGKSDTSWLYTLLAMIGHQFDHGDEICGAVVSVRAKGEKIALWTKNAANETAQVSIGKQWKQFLDYSDSVGFIFHDDAKRLDRNAKNRYTV
binds: all assays above
